For series [1], the target named is T1, Tt-RuvC E70Q (Thermus thermophilus) (UniProt Q5SJC4).
T1 sequence (looked up, limits assumed): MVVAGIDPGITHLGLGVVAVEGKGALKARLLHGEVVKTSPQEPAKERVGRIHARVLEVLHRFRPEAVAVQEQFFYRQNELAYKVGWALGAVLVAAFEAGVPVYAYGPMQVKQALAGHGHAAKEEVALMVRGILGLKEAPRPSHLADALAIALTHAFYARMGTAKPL
In words: co-crystallization. Conditions: structure not stated for this junction; recombinant protein; folded or branched DNA.

Series [2] addresses T2, Tt-RuvC E70Q T11C (Thermus thermophilus) (UniProt Q5SJC4).
T2 sequence (looked up, limits assumed): T1 sequence (looked up, limits assumed) with T11C
In words: site-specific thiol cross-linking. The following applies: 5 mM Mg2+, 100 mM KCl, some product; thiol tether on phosphate after nt 25 of strands 2 and 4; Cross-linking: 100 mM NaCl, 10 mM HEPES pH 7.0, 0.5 mM DTT, 15% glycerol, 5 mM MgCl2 (+100 mM KCl for backbone thiols), protein:DNA 1:1, 37 C 2.5 h then 25 C overnight; recombinant protein; protein details: N-terminal His-tag; folded or branched DNA.

In series [3] the target is T3, Tt-RuvC E70Q R140C (Thermus thermophilus) (UniProt Q5SJC4).
T3 sequence (looked up, limits assumed): T1 sequence (looked up, limits assumed) with R140C
Put plainly: site-specific thiol cross-linking. The following applies: 5 mM Mg2+, 100 mM KCl, no cross-link (contact position, not loss of affinity), Cross-linking: 100 mM NaCl, 10 mM HEPES pH 7.0, 0.5 mM DTT, 15% glycerol, 5 mM MgCl2 (+100 mM KCl for backbone thiols), protein:DNA 1:1, 37 C 2.5 h then 25 C overnight, recombinant protein, protein details: N-terminal His-tag, folded or branched DNA.

Substitutions are numbered along the chain they refer to. For at least one entry, the source does not settle the construct or the ends of the probe. For some of these results: Negatives hold for the conditions tested. Protein sequences can lack the tags named with them. For some of these results: The comparison behind a weaker result is the experiment's own reference, which may not be listed here. For some of these results: At least one verdict was read from the data and is not stated in words by the source.

As to “CAATCGGCATTCACCTTTGGTGATTCGGCAGAT / ATCTGCCGATTCTGGTTTCCAGATTGCCGATTG [HJ J221m/J222m]”, the binding result in series [1] is reported as “binds”.
In the case of “GACGGCCTCGCAATCAGCTATGACCGAGCACGCGAGATGT / ACATCTCGCGTGCTCGGTCATTCGTCAGATGCGGAGTGAA / TTCACTCCGCATCTGACGATTCTGGCTGTGGCGTGTTTCT / AGAAACACGCCACAGCCAGAAAGCTGATTGCGAGGCCGTC [HJ-29bb]”, the binding result in series [2] is “binds more weakly”; in series [3] (thiol tether on phosphate after nt 25 of strands 2 and 4), “no binding”.
On to “GACGGCCTCGCAATCGACTATGACCGAGCACGCGAGATGT / ACATCTCGCGTGCTCGGTCATTCTGCAGATGCGGAGTGAA / TTCACTCCGCATCTGCAGATTCTGGCTGTGGCGTGTTTCT / AGAAACACGCCACAGCCAGAAAGTCGATTGCGAGGCCGTC [HJ-28bb]”, for which, in series [3] (thiol tether on phosphate after nt 24 of strands 2 and 4), the binding result is reported as “no binding”.

The record behind these values is publication PMC3834835, “Crystal structure of RuvC resolvase in complex with Holliday junction substrate” (Nucleic Acids Research, 2013).
